PubChem BioAssay AID1259425 – University of Nebraska Medical Center – 2018
Shown is a random part of about 14,000 reagents tested. Some reagents were tested in more than one well and are listed for each. Further read-outs or replicates are left out here. Not given: the time to read-out.

Test: 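Find knockdowns that reproduce the gene expression pattern seen when KSR1 is lost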 (primary screen)
Cells: HCT116 human colon cancer cells
Reagent: siRNA pool against human genes, 50 nM siRNA
Read-out: 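mRNA of six signature genes measured together by branched-DNA assay after 50 nM siRNA pool, blank removed, divided by geometric mean of two housekeeping genes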
Direction: BNIP3L mRNA: higher = more BNIP3L transcript after knockdown

gene	PubChem SID	BNIP3L mRNA, set 1
KCNJ5	SID363992175	0.287
PHF1	SID363993804	0.0825
OTUB1	SID364000434	0.0793
USO1	SID363994784	0.154
ZNF75D	SID363997845	0.128
UPF1	SID363994066	0.0715
FOXC2	SID363996172	0.156
ORMDL1	SID364000125	0.0713
OMP	SID363997015	0.17
HSPB3	SID363997130	0.0968
DKK2	SID363998838	0.129
IL1RN	SID363991896	0.08
HOXA11	SID363996423	0.138
CHM	SID363991721	0.036
CHM	SID364004729	0.0535
HEMK2	SID363998364	0.083
PRO2964 (retired record)	SID364005607	0.0982
GGA3	SID363998537	0.0824
SH3BGRL3	SID364003575	0.42
TBC1D22B	SID364000516	0.0872
POPDC3	SID364002416	0.207
EPS8	SID363995429	0.0828
GPR160	SID363998797	0.203
ZNF541	SID364003850	0.145
CBFA2T3	SID363996113	0.0599
RABGAP1	SID363998130	0.0758
RABGAP1	SID363998130	0.0916
GLDC	SID363991506	0.0818
C5orf15	SID364001552	0.308
DUX4L1	SID364004339	0.0479
ITIH3	SID363993418	0.1
SERF1A	SID364002257	0.205
PSMC2	SID363993960	0.15
SERPINE2	SID363997041	0.163
ZNF446	SID364000633	0.0845
TYK2	SID363994447	0.12
NCKAP1	SID363998515	0.163
RPN1	SID363994101	0.216
MRGBP	SID364000931	0.0578
PARP3	SID363996387	0.059
CLPP	SID363996865	0.0321
SLC23A2	SID363996051	0.0767
RADX	SID364000709	0.128
LBHD1	SID364002748	0.0717
SFRP5	SID363994164	0.185
PISD	SID363998766	0.391
THRA	SID363994371	0.0892
GUSB	SID363991517	0.0407
ZNF589	SID363999861	0.103
MRPL22	SID363998637	0.0679

Already shown: 4 of the entries above.
gene	PubChem SID	BNIP3L mRNA, set 1
DKK2	SID363998838	0.129
IL1RN	SID363991896	0.08
HOXA11	SID363996423	0.138
CHM	SID363991721	0.036
